Data on three molecules can be found in PMC5581047.

The target of assay [1] is T1, mutated hemagglutinin tagged Api5 where the LXXLL has been mutated into LXXAA (UniProt Q9BZZ5).
T1 sequence: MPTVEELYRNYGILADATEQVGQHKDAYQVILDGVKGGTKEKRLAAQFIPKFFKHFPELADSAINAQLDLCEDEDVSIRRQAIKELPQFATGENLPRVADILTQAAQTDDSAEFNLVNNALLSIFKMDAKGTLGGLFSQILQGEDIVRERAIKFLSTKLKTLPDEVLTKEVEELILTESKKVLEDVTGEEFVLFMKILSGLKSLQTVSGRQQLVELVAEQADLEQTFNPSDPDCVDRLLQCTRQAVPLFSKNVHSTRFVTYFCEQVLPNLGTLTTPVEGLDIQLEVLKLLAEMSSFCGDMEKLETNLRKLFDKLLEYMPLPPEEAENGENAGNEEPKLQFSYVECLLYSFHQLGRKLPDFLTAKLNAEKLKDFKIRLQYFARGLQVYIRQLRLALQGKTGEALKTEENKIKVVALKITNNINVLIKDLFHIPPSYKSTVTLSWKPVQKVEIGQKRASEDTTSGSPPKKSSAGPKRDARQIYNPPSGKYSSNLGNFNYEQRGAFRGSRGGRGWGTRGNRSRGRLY
The assay is described as follows: co-IP; MCF7 cells transfected with HA-Api5 (LXXLL or LXXAA), nuclear extract, HA Tagged Protein Isolation Kit (Miltenyi Biotec); Western blot against endogenous ERα and RPS19.

Assay [2] deals with T2, hemagglutinin tagged wild type Api5 (HA-Api5 LXXLL) (UniProt Q9BZZ5).
T2 sequence: T1 sequence with A105L, A106L
The assay is described as above.

The target of assay [3] is T3, Api5 (Apoptosis inhibitor 5), endogenous (human (endogenous in MCF7)) (UniProt Q9BZZ5).
T3 sequence: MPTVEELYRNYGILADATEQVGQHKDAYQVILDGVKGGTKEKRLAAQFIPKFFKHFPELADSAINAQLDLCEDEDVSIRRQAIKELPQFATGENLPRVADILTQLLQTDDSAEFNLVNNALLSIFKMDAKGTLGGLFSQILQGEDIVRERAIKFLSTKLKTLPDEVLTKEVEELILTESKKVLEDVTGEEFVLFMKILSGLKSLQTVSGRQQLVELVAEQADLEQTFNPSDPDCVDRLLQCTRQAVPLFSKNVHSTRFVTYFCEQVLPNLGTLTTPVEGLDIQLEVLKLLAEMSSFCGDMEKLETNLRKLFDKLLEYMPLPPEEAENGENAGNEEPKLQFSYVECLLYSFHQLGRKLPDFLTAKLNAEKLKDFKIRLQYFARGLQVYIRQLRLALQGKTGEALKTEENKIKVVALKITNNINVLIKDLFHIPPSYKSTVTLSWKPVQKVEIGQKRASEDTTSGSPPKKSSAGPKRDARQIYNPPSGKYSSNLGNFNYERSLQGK
Kind of assay: co-IP; endogenous proteins, sonicated nuclear extract of MCF7 cells (lysis buffer 150 mM NaCl, 1% Triton, 50 mM Tris HCl pH 8), BioAdembeads protein G kit; IP of Api5 or of ERα, Western blot.

Assay [4] has as its target Estrogen receptor alpha (ERα), endogenous (human (endogenous in MCF7)). The assay is described as above.
Assay [5] deals with GST-ERα D/E/F domains (amino acids 251-595). The assay is described as follows: pull-down; GST-ERα domains or full length bound to glutathione-Sepharose 4B beads, incubated with recombinant Api5 protein; Western blot; both purified.
Assay [6] concerns the target GST-ERα A/B domain (amino acids 2-184). Described as above.
Assay [7] addresses GST-ERα E/F domains (amino acids 313-599). The description is as above.
Assay [8] has as its target GST-ERα D domain (amino acids 251-312). The description is as above.
Assay [9] deals with full length GST-ERα (1-595). The assay is described as above.

Changes are numbered by the printed parent chain. Results are given in words; binding and its absence hold for the method and conditions named. For part of these data: Binding calls can cover weak binding; strength is not graded here. For part of these data: In cells and extracts the contact can be indirect. For part of these data: Sequences can lack the tags named with a protein.

For “Estrogen receptor alpha (ERα), endogenous (human (endogenous in MCF7))”, the binding entry in assay [1] was “no binding”; in assay [2], “binds”; in [3], “binds”.

B1: Api5 (Apoptosis inhibitor 5), endogenous (protein, UniProt Q9BZZ5-2 1-504)
chain: T3 sequence
Turning to B1, the binding result in [4] is recorded as “binds”.

B2: Recombinant Api5 protein (protein, UniProt Q9BZZ5 1-524)
chain: T1 sequence with A105L, A106L
Take B2: the binding entry is reported as “no binding” in assay [5]; “no binding” in [6]; “no binding” in assay [7]; “no binding” in assay [8]; “binds” in assay [9].
